# For at least one compound, name, drawing or mass did not settle the structure.
# Test system: lupus nephritis
# Experiment: Probability of attaining CR by proteinuria depending on UPCR reduction of 25% at 8 weeks (Tables 9a, 9b)
# Format: in vivo, human
# Details: for #(%) of patients who did not have a reduction of UPCR of ≥25% who went on to be a CR by UPCR at 24 weeks / #(%) of patients who did not have a reduction of UPCR of ≥25% who went on to be a CR by UPCR at 48 weeks: no UPCR reduction at 8 weeks
# [1] = UPCR reduction at 8 weeks, Low Dose (23.7 mg BID)
structure (smiles),measurement,setting,value
C=C/C=C/C[C@@H](C)[C@@H](O)[C@H]1C(=O)N[C@@H](CC)C(=O)N(C)CC(=O)N(C)[C@@H](CC(C)C)C(=O)N[C@@H](C(C)C)C(=O)N(C)[C@@H](CC(C)C)C(=O)N[C@@H](C)C(=O)N[C@H](C)C(=O)N(C)[C@@H](CC(C)C)C(=O)N(C)[C@@H](CC(C)C)C(=O)N(C)[C@@H](C(C)C)C(=O)N1C [voclosporin],#(%) of patients who had a reduction of UPCR of ≥25% who went on to be a CR by UPCR at 24 weeks,"UPCR reduction at 8 weeks, High Dose (39.5 mg BID)",24/72 (33.3) #(%)
same,#(%) of patients who had a reduction of UPCR of ≥25% who went on to be a CR by UPCR at 24 weeks,[1],29/64 (45.3) #(%)
same,#(%) of patients who had a reduction of UPCR of ≥25% who went on to be a CR by UPCR at 48 weeks,[1],40/64 (62.5) #(%)
same,#(%) of patients who did not have a reduction of UPCR of ≥25% who went on to be a CR by UPCR at 24 weeks,High Dose (39.5 mg BID),0/12 (0.0) #(%)
same,#(%) of patients who did not have a reduction of UPCR of ≥25% who went on to be a CR by UPCR at 48 weeks,High Dose (39.5 mg BID),3/12 (25.0) #(%)
same,#(%) of patients who did not have a reduction of UPCR of ≥25% who went on to be a CR by UPCR at 24 weeks,Low Dose (23.7 mg BID),0/16 (0.0) #(%)
same,#(%) of patients who did not have a reduction of UPCR of ≥25% who went on to be a CR by UPCR at 48 weeks,Low Dose (23.7 mg BID),4/16 (25.0) #(%)

# Source: US11622991B2, “Protocol for treatment of lupus nephritis” (Aurinia Pharmaceuticals Inc., priority 2017, dated 2023)
